# The list shows a part of the results.
# The chains behind the UniProt entries cited, without tags or fusion partners. Where a name states a change or a piece, a line headed by the entry shows the natural chain unless it says otherwise.
# UniProt Q9H6P5: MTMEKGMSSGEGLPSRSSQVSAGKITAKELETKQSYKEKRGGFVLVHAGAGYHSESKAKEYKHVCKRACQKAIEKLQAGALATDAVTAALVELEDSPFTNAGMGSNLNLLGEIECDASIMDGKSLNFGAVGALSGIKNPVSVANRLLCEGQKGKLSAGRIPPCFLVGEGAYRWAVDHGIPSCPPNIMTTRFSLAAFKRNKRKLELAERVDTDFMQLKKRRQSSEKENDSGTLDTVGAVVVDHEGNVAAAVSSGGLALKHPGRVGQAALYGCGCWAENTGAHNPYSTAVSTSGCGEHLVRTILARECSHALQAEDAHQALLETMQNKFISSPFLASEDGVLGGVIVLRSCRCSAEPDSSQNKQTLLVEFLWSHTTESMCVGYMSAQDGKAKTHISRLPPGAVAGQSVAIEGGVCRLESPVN
# UniProt Q9BXI6: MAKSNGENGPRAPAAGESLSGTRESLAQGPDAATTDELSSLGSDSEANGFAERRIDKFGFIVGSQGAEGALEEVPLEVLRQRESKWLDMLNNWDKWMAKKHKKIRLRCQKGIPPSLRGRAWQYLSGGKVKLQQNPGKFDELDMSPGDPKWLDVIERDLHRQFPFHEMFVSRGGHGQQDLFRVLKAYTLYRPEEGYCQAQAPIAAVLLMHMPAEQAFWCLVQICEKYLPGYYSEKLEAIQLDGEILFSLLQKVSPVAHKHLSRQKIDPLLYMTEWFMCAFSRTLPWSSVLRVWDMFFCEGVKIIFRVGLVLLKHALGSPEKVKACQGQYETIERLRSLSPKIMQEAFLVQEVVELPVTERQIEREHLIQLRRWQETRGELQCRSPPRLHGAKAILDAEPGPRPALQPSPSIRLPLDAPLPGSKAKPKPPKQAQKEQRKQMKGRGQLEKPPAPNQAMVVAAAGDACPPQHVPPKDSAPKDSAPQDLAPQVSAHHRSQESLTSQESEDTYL
# UniProt P20226, whole entry, looked up: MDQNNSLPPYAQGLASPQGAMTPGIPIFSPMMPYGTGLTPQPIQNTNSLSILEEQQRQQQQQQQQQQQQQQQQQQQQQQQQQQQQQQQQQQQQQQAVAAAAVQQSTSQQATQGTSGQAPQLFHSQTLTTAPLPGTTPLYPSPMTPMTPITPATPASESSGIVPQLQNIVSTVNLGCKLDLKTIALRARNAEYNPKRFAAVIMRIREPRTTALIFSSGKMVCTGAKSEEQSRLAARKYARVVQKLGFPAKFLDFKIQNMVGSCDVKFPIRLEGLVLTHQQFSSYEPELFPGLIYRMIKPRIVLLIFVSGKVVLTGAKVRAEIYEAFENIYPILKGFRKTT
# UniProt P21731: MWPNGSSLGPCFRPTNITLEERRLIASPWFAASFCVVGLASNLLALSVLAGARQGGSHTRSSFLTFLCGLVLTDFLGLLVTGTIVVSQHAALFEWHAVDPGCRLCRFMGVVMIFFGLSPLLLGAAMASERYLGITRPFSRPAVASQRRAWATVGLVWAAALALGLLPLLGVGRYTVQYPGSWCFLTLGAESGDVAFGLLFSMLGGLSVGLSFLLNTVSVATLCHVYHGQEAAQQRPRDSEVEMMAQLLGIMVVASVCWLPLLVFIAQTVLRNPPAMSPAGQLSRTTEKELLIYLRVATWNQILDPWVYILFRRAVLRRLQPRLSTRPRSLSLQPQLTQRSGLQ
# UniProt P15923: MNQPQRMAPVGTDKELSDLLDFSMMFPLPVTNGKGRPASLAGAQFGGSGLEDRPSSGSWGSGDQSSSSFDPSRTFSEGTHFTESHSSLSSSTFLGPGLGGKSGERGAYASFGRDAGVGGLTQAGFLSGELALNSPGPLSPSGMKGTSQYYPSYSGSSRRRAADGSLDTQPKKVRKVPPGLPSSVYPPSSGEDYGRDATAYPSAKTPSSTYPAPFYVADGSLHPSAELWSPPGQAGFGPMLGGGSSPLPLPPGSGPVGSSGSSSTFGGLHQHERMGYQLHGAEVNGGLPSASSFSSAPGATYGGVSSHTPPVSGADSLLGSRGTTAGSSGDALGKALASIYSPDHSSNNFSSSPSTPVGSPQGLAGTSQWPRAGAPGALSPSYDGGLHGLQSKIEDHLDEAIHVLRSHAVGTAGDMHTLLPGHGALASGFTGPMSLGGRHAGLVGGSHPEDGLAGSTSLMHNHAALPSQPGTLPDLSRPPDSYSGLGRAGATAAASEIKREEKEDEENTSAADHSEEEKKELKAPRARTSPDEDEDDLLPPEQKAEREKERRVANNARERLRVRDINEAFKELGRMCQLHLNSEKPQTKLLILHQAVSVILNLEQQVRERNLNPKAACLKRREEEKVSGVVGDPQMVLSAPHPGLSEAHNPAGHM
# UniProt Q8NDF8: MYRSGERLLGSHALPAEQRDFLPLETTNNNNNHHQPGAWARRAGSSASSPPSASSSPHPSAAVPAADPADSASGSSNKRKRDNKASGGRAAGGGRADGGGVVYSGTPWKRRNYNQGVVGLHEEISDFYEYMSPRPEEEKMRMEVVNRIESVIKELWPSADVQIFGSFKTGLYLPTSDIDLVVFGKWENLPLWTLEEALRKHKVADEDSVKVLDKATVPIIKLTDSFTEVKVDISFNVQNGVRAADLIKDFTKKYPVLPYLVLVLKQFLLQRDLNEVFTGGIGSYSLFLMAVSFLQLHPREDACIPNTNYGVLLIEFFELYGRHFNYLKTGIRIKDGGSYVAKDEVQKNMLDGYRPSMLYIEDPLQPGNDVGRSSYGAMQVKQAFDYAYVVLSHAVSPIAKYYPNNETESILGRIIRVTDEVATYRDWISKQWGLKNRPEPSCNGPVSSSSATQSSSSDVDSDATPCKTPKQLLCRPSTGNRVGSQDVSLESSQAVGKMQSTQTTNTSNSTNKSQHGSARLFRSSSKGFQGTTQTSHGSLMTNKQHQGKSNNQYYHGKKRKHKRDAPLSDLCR
# UniProt P20061: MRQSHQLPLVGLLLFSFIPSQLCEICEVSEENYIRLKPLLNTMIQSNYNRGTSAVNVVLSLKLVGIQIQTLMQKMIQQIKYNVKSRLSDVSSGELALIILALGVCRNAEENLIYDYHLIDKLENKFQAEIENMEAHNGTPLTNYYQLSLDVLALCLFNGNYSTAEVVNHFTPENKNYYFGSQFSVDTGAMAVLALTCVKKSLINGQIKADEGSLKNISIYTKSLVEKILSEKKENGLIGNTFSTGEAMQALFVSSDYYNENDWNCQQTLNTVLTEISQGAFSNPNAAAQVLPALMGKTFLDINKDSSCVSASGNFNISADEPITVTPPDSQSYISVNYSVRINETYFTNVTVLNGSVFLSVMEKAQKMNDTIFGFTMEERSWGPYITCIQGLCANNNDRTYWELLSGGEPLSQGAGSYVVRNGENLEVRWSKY
# UniProt Q99594, whole entry, looked up: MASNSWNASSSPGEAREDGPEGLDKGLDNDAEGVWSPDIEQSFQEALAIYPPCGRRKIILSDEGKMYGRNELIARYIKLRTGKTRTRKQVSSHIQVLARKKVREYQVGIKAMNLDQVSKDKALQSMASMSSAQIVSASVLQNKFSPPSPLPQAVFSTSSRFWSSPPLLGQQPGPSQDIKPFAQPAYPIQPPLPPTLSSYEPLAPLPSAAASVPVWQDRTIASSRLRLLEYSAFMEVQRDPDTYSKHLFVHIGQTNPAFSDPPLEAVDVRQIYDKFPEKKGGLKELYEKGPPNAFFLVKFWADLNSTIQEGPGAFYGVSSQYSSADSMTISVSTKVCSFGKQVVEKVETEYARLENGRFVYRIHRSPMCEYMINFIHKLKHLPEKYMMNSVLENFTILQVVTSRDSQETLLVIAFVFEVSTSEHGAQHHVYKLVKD
# UniProt Q8TEA7: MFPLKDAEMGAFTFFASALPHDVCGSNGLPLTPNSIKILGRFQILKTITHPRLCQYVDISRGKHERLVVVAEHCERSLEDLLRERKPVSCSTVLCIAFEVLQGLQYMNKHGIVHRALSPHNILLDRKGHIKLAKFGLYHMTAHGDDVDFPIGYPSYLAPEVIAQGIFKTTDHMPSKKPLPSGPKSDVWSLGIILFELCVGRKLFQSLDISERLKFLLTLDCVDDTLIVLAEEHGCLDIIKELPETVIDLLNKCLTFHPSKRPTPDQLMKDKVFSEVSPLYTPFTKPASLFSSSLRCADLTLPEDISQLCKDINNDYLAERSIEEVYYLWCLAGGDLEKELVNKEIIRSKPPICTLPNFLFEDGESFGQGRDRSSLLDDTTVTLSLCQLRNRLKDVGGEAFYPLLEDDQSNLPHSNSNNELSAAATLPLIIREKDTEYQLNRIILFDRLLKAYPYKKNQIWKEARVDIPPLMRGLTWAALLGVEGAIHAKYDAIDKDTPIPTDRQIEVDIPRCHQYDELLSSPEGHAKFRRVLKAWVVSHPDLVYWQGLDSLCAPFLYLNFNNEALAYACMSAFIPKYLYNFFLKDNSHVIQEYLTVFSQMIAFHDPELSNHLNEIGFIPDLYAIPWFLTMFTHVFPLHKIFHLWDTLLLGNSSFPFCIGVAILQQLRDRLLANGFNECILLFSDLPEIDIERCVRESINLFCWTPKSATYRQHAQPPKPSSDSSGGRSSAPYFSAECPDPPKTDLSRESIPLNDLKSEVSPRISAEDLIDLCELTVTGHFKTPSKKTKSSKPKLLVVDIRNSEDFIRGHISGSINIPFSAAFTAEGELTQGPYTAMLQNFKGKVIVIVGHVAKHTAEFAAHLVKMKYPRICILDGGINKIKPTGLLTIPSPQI
# Compound: NCC(=O)Nc1ccc(-n2nc(C(F)(F)F)cc2-c2ccc3c(ccc4ccccc43)c2)cc1
# Experiment: log2 fold change, soluble protein after heating vs DMSO (PISA); higher = thermal stabilisation; K562 lysate, 10 uM; active = over 0.2 and 3.5 SD of the protein, either way, in both replicates (recomputed)
# In short: (§1)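 Values give the log-two fold change in thermal stability against solvent controls, from duplicates. Crude K562 extract at 1 mg/mL protein, made by dounce homogenisation in PBS pH 7.4 with 1 mM MgCl2, was treated with 10 μM compound for 30 min. After 3 min heating across 48°C-58°C, aliquots were pooled, adjusted to 0.5% NP-40 at 4°C and centrifuged at 21,000xg for 90 min. The supernatant was measured by TMTpro 16plex LC-MS/MS with channel sums equalised.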
row,Target,log2 fold change
1,TDG (UniProt Q13569),inactive: 0
2,TCEAL4 isoform 2 (UniProt Q96EI5),inactive: 0.034
3,TARDBP (UniProt K7EN94),inactive: 0.1
4,TBX1 isoform 3 (UniProt O43435),inactive: 0.219
5,TEC (UniProt P42680),active: -1.05
6,TCEAL8 (UniProt Q8IYN2),inactive: -0.163
7,TAOK2 (UniProt Q9UL54),inactive: 0.015
8,TERF1 (UniProt P54274),inactive: -0.124
9,TC2N (UniProt Q8N9U0),inactive: 0.005

# Compound: O=C(CCCCCCC(=O)Nc1ccccc1)NO [vorinostat]
# Experiment: as above
# In short: as §1
row,Target,log2 fold change
1,TASP1 (UniProt Q9H6P5),active: 0.481
2,TECPR1 isoform 4 (UniProt Q7Z6L1),inactive: -0.093
3,TBC1D10A (UniProt Q9BXI6),inactive: -0.191
4,TBP (UniProt P20226),inactive: -0.156
5,TBCA (UniProt E5RHG6),inactive: 0.006
6,TBXA2R (UniProt P21731),inactive: 0.388
7,TCF3 isoform 2 (UniProt P15923),inactive: -0.196
8,TENT4B isoform 5 (UniProt Q8NDF8),inactive: -0.023
9,TANC2 isoform 2 (UniProt Q9HCD6),inactive: -0.555
10,TCN1 (UniProt P20061),inactive: -0.141
11,TCF20 (UniProt Q9UGU0),inactive: -0.067
12,TET2 (UniProt Q6N021),inactive: -0.036
13,TEAD3 (UniProt Q99594),inactive: -0.106
14,TBCCD1 (UniProt Q9NVR7),inactive: -0.201
15,TFPT (UniProt P0C1Z6),inactive: 0.289
16,TCOF1 isoform 6 (UniProt Q13428),inactive: 0.15
17,TAZ (UniProt Q16635),inactive: 0.373
18,TCOF1 isoform 3 (UniProt Q13428),inactive: 0.184
19,TAX1BP1 isoform 2 (UniProt Q86VP1),inactive: 0.279
20,TEDC1 (UniProt Q86SX3),active: -0.356
21,TBCK (UniProt Q8TEA7),inactive: -0.048
22,TEAD4 (UniProt Q15561),inactive: -0.058

# Compound: O=C(O)c1ccc2c(c1)nc(Nc1cccc(Cl)c1)c1ccncc12 [silmitasertib]
# Experiment: as above
# In short: as §1
row,Target,log2 fold change
1,TASP1 (UniProt Q9H6P5),inactive: -0.018
2,TECPR1 isoform 4 (UniProt Q7Z6L1),inactive: 0.005
3,TBC1D10A (UniProt Q9BXI6),inactive: -0.036
4,TBP (UniProt P20226),inactive: 0.038
5,TBCA (UniProt E5RHG6),inactive: -0.073
6,TBXA2R (UniProt P21731),inactive: -0.049
7,TCF3 isoform 2 (UniProt P15923),inactive: -0.056
8,TENT4B isoform 5 (UniProt Q8NDF8),inactive: -0.264
9,TANC2 isoform 2 (UniProt Q9HCD6),inactive: -0.249
10,TCN1 (UniProt P20061),inactive: -0.082
11,TCF20 (UniProt Q9UGU0),inactive: 0.054
12,TET2 (UniProt Q6N021),inactive: 0.046
13,TEAD3 (UniProt Q99594),inactive: 0
14,TBCCD1 (UniProt Q9NVR7),inactive: 0.095
15,TFPT (UniProt P0C1Z6),inactive: -0.18
16,TCOF1 isoform 6 (UniProt Q13428),inactive: -0.052
17,TAZ (UniProt Q16635),inactive: -0.304
18,TCOF1 isoform 3 (UniProt Q13428),inactive: -0.123
19,TAX1BP1 isoform 2 (UniProt Q86VP1),inactive: 0.099
20,TEDC1 (UniProt Q86SX3),inactive: 0.068
21,TBCK (UniProt Q8TEA7),inactive: -0.159
22,TEAD4 (UniProt Q15561),inactive: -0.201

# Compound: O=C1NC(=O)C(c2cnc3ccccn23)=C1c1cn2c3c(cc(F)cc13)CN(C(=O)N1CCCCC1)CC2
# Experiment: as above
# In short: as §1
row,Target,log2 fold change
1,TASP1 (UniProt Q9H6P5),inactive: 0.029
2,TBC1D10A (UniProt Q9BXI6),inactive: -0.137
3,TBP (UniProt P20226),inactive: -0.011
4,TDG (UniProt Q13569),inactive: -0.12
5,TENM4 (UniProt Q6N022),inactive: 0.143
6,TCEAL4 isoform 2 (UniProt Q96EI5),inactive: -0.024
7,TBCA (UniProt E5RHG6),inactive: 0.055
8,"TBCD, A0A0J9YWI5",inactive: -0.042
9,TBXA2R (UniProt P21731),inactive: 0.056
10,TCF3 isoform 2 (UniProt P15923),inactive: 0.043
11,TENT4B isoform 5 (UniProt Q8NDF8),inactive: 0.069
12,TGDS (UniProt O95455),inactive: -0.029
13,TCF4 (UniProt P15884),inactive: 0.078
14,TCN1 (UniProt P20061),inactive: -0.05
15,TCF20 (UniProt Q9UGU0),inactive: -0.056
16,TET2 (UniProt Q6N021),inactive: -0.049
17,TEAD3 (UniProt Q99594),inactive: 0.037
18,TCEAL8 (UniProt Q8IYN2),inactive: 0.024
19,TAOK2 (UniProt Q9UL54),inactive: -0.051
20,TERF1 (UniProt P54274),inactive: -0.011
21,TCTN3 (UniProt Q6NUS6),inactive: 0.029
22,TCOF1 isoform 6 (UniProt Q13428),inactive: -0.075
23,TEDC2 (UniProt Q7L2K0),inactive: -0.221
24,TAZ (UniProt Q16635),inactive: 0
25,TCOF1 isoform 3 (UniProt Q13428),inactive: 0.202
26,TEDC1 (UniProt Q86SX3),inactive: -0.012
27,TBCK (UniProt Q8TEA7),inactive: -0.07
28,TBXAS1 isoform 3 (UniProt P24557),inactive: -0.198

# — the supplement of paper PMC10849652
